Experimental data: paper PMC7503102
No constants are given. Whether binding was seen depends on the method and setting. Binding seen in cells or lysates may run through a third protein. A yes stands for co-enrichment or nearness to the bait. Other partners may have been found.

Protein sequences, listed by entry. Tags and fused reporters are not part of them. Residues count along the entry.
UniProt Q68DV7, residues 24-783: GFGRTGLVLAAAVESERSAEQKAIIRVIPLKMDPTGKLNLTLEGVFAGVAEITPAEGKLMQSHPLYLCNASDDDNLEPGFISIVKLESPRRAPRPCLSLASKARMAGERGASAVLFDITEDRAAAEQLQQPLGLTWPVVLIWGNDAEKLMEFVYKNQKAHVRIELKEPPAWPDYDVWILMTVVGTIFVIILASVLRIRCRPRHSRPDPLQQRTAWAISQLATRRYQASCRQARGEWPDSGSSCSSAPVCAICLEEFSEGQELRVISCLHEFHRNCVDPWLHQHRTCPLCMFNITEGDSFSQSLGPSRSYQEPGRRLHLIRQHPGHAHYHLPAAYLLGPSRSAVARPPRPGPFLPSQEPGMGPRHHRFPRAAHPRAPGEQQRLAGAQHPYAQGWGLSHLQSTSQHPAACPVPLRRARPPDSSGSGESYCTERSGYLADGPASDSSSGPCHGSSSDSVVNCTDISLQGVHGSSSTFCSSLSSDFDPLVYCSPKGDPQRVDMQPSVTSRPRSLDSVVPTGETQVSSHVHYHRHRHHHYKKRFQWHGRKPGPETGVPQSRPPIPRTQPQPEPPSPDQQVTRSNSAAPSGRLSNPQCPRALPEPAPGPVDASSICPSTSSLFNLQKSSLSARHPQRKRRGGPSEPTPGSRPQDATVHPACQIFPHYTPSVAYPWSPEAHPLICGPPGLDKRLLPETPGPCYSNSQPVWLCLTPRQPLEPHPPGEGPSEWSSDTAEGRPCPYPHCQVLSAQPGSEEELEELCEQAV
UniProt O15169: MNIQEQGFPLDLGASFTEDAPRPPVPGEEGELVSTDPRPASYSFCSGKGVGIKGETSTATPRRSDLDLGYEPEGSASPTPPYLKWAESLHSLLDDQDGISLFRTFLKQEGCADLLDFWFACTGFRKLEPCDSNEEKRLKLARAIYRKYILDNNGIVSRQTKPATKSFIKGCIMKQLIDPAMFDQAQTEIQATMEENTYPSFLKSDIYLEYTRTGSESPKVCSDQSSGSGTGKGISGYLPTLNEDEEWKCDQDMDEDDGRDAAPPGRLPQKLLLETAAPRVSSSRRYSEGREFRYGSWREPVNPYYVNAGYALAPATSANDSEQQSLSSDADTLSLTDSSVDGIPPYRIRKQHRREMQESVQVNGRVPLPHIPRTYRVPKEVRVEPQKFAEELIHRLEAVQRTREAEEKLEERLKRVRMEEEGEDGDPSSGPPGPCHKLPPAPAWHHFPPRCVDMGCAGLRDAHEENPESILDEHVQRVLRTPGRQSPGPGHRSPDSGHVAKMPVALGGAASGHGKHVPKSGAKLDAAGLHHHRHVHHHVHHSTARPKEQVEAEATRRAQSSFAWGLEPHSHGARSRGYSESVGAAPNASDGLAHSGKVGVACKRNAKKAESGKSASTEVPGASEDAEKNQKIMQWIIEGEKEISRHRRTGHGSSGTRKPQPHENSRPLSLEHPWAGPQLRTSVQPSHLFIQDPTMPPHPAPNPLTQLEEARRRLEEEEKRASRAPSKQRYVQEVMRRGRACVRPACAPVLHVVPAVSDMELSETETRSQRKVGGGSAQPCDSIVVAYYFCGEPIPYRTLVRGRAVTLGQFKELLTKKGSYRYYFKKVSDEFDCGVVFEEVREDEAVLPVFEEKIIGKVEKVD
UniProt P49674: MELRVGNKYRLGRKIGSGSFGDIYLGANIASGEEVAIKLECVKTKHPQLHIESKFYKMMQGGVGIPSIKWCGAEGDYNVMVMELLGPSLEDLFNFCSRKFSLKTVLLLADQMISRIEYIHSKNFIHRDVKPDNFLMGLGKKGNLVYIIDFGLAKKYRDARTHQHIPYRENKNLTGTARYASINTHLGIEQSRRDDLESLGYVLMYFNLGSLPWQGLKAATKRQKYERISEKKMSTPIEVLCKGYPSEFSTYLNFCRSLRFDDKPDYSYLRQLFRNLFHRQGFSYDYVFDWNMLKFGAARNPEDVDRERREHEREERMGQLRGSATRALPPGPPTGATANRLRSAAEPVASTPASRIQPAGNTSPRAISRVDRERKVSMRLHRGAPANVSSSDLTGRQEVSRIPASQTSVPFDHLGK

Molecular target: RNF43-BirA*-HA (human) (UniProt Q68DV7)
Experiment: proximity labelling; BioID: T-REx-293 cells stably expressing inducible RNF43-BirA*-HA, treated o/n with tetracycline and biotin; streptavidin pull-down, LC-MS/MS; non-induced cells as negative control

| binding | Substance |
| --- | --- |
| binds | Axin1 (endogenous) (from UniProt O15169 1-862) |
| binds | Casein kinase 1 epsilon (endogenous) (from UniProt P49674 1-416) (enzyme) |
